Experimental data taken from publication PMC5341093.
No constants are given. Whether binding was seen depends on the method and setting. For some assays here: Binding seen in cells or lysates may run through a third protein. Some results given as binding are weak or reduced against the parent protein; the word gives no strength.

Sequences of proteins named here, by UniProt entry; tags and fusion partners are left off.
UniProt Q01650: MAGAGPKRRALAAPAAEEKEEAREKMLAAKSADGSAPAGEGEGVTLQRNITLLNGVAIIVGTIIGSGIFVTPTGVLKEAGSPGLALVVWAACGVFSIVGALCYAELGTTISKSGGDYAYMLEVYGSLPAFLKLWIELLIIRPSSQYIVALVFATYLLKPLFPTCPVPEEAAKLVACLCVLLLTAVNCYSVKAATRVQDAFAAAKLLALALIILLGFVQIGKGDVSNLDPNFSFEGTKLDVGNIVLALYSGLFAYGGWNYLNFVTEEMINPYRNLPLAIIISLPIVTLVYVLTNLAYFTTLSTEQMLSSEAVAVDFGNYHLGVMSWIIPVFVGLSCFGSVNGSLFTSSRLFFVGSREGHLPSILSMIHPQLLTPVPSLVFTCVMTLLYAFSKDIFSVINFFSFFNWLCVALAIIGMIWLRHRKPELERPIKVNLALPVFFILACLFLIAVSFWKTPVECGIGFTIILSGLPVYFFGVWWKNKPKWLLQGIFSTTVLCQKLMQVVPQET

Columns and labels:
[1] = target: L-Type Amino Acid Transporter 1 (LAT1, SLC7A5), LAT1-V5-His6 (human) (UniProt Q01650); assay: SEC; co-purified LAT1-CD98 (peak 3, with CHS) in SEC buffer (DDM, 100 mM Tris-Cl, 300 mM NaCl, 10% glycerol, pH 8, CHS) run on analytical HPLC-SEC (BIO-SEC5) on day 1, 3 and 7 of storage at 4 °C; both purified
[2] = target: L-Type Amino Acid Transporter 1 (LAT1, SLC7A5), LAT1-V5-His6 (human) (UniProt Q01650); assay: co-IP; LAT1-V5-His6 precipitated on V5 affinity gel from DDM-solubilised membranes of HEK293S GnTI- LAT1 cells (1.5% DDM, 20 mM Tris-Cl, 300 mM NaCl, 10% glycerol, pH 8, with CHS), eluted with V5 peptide, SEC on Superdex 200; peaks immunoblotted for CD98 and His6 in non-reducing conditions

Question: For “CD98 (4F2hc, SLC3A2) (from UniProt P08195 1-529)”, which binding [1] is on record?
Answer: Its binding is “binds”.

Question: What about the binding [2] of the same substance?
Answer: The binding was “binds”.
